Binding data for two molecules are collected here from patent publication US20230070339A1 (UNIVERSITY OF SOUTHAMPTON, published 2023).

Protein sequences, listed by entry. Tags and fused reporters are not part of them. Residues count along the entry.
UniProt O75022, residues 24-631: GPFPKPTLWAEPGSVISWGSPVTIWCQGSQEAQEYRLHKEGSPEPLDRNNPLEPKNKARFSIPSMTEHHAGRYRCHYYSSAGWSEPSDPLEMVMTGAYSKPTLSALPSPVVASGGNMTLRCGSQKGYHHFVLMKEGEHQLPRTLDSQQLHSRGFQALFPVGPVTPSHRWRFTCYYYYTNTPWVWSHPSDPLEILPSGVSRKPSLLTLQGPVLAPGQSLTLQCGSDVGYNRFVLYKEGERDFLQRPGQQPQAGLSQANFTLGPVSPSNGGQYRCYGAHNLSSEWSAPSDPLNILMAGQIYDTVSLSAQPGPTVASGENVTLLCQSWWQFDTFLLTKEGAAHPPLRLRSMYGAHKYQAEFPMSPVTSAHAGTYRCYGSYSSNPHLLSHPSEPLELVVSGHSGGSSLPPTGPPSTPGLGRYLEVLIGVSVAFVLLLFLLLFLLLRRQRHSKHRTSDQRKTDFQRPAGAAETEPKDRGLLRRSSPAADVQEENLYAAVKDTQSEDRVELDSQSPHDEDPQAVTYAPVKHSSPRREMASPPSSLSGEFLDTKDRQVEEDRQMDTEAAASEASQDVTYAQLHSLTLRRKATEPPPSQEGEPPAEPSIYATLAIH

Assay [1] has as its target human LILRB3 (ILT5/LIR3/CD85a) on cells (human) (UniProt O75022). The assay is described as follows: flow cytometry on human monocyte-derived macrophages (A16 by the legend of FIG. 4A).
In assay [2] the target is WT LILRB3 (all four extracellular domains) on transfected HEK293F cells (human) (UniProt O75022). Kind of assay: domain mapping by flow cytometry on transfected HEK293F cells (told in the discussion). On the technique in general: In flow cytometry, cells or beads pass a laser one at a time.

Results are given in words; binding and its absence hold for the method and conditions named. Some binding calls cover weakened binding; strength is not graded here.

B1: LILRB3 mAb clone A16 (antibody, human IgG1, V domains shown)
VH: EVQLLESGGGLVQPGGSLRLSCAASGFTFSSYWMSWVRQAPGKGLEWVSRINTHGTNIDYADSVKGRFTISRDNSKNTLYLQMNSLRAEDTAVYYCVGVAGTGWFDPWGQGTLVTVSS
VL: QSVLTQPPSASGTPGQRVTISCTGSSSNIGAGYDVHWYQQLPGTAPKLLIYGNNNRPSGVPDRFSGSKSGTSASLAISGLRSEDEADYYCQSYDTSLSGSVFGGGTKLTVLG
notes: Fully human IgG1, full-length IgG; only variable domains tied to the clone; APC-labelled for staining of primary cells; deglycosylated in the T cell assay
As to B1, the binding entry in assay [1] is on record as “binds”.

B2: LILRB3 mAb clone A28 (antibody, human IgG1, V domains shown)
VH: EVQLLESGGGLVQPGGSLRLSCAASGFTFSSYSMNWVRQAPGKGLEWVANIKQDGTENYYVDSVEGRFTISRDNSKNTLYLQMNSLRAEDTAVYYCARDGDWGWGFDYWGQGTLVTVSS
VL: QSVLTQPPSASGTPGQRVTISCTGSSSNIGAGYDVHWYQQLPGTAPKLLIYENNKRPSGVPDRFSGSKSGTSVSLAISGLRSEDEADYYCAAWDDSLSGWVFGGGTKLTVLG
Consider B2, for which the binding result in assay [2] is given as “binds”.
